The other results are listed elsewhere or left out. These are further read-outs of the screen, such as a control signal, another cell line or another target. No call is given for them. The list favours compounds with an active or inconclusive main result. Potencies come from curve fits of mixed quality, noted in brackets.
Assay: qHTS Assay to Find Inhibitors of Chronic Active B-Cell Receptor Signaling
Conditions: ABC-DLBCL IkBa-CBG/CBR reporter, luminescence ratio (green luciferase fused to IkBa over red control in TMD8 lymphoma cells), 4 h
Summary of the method: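 Concentration-response series (up to 46 uM) were applied to TMD8 dual-reporter cells for 4 h at 37C with doxycycline. Green/red ratio, after filter-overlap correction, defined %Activity; red signal alone was normalised to basal cells and zero luminescence.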

[1] = measured here: CBR red luminescence, cell number
[2] = measured here: IkBa-CBG green luminescence

Row | SMILES | AC50 [1] | AC50 [2]
1 | O=C(CSCc1nc2ccccc2[nH]1)N1CCN(c2cccc(Cl)c2)CC1 | 3.55 µM [rising, single point] | 
2 | O=C(COc1cccc2cccnc12)Nc1ccccc1N1CCOCC1 | 3.16 µM [rising, full curve, poor fit] | 
3 | CCCCOc1ccc(Cl)cc1CSc1nnc(CC)n1N | 6.51 µM [falling, single point] | 
4 | CCCC(=O)Nc1nc(-c2ccc3c(c2)CCN3S(C)(=O)=O)cs1 | 4.47 µM [rising, partial curve, poor fit] | 
5 | Cc1c(C(=O)NCCSCc2ccc(Cl)cc2Cl)cccc1[N+](=O)[O-] | 35.5 µM [falling, single point] | 
6 | CCN(CCN(C)C)C(=O)c1ccc2c(c1NCCO)C(=O)c1ccccc1C2=O | 0.1 µM [rising, full curve, poor fit] | 
7 | Oc1ccc(N=Nc2n[nH]c(-c3ccc(Br)cc3)n2)cc1 | 0.0651 µM [falling, full curve] | 29.1 µM [rising, partial curve, poor fit]
8 | COc1ccc2[nH]c3c4c(ccc3c2c1)C(=O)C=CC4=O | 35.5 µM [falling, single point] | 
9 | CCCCn1c(NCc2ccc3c(c2)OCO3)nc2ccccc21 | 6.51 µM [falling, partial curve] | 
10 | OCC1CCCN(c2nc(CN3CCCCC3)nc3scc(-c4ccccc4)c23)C1 (configuration not stated) | 29.1 µM [falling, single point] | 
11 | CN(CC(=O)NCCc1ccc(F)cc1)Cc1cccc(Cl)c1 | 15.8 µM [falling, partial curve, poor fit] | 
12 | COc1cccc(NC(=S)N(CCc2c(C)[nH]c3ccccc23)Cc2cccs2)c1 | 6.51 µM [rising, partial curve, poor fit] | 
13 | COCCCn1c(SCc2cccc(OC)c2)nc2cc(OC)c(OC)cc2c1=N | 7.08 µM [falling, partial curve] | 
14 | C=CCOc1ccc(CNCCc2ccc(S(N)(=O)=O)cc2)cc1 | 35.5 µM [falling, single point] | 
15 | O=c1[nH]c2sc3c(c2c(=O)n1Cc1ccccc1)CCC3 | 6.31 µM [falling, partial curve] | 
16 | Cc1ccc(C(=O)NCC(=O)NCC(=O)OCc2ccc(Cl)cc2)cc1 | 29.1 µM [rising, partial curve, poor fit] | 
17 | Cc1ccnc(NC(=O)CCC(=O)N(CC(=O)NCCc2ccccc2)c2ccccc2F)c1 | 20 µM [falling, single point] | 
18 | Nc1nc(Nc2cccc(Cl)c2)sc1C(=O)c1ccc(F)cc1 | 5.62 µM [falling, full curve, poor fit] | 12.6 µM [rising, single point]
19 | Cc1noc(C)c1COc1ccc(C(=O)NCCc2ccccn2)cc1 | 28.2 µM [rising, single point] | 
20 | CC(C)c1ccc(NC(=S)N2CCCC(c3ccc(F)cc3)=N2)cc1 | 14.1 µM [rising, single point] | 
21 | CCCNC(=S)Nc1ccc(Br)cc1 | 3.98 µM [rising, partial curve, poor fit] | 

Row | SMILES | AC50 [1] | AC50 [2]
22 | CCOc1ccc2nc(NCCCNC(=O)c3cc(OC)c(OC)c(OC)c3)c(C#N)cc2c1 | 0.1 µM [rising, full curve, poor fit] | 
23 | O=C(NC1CCCC1)C(c1cccs1)N(Cc1ccco1)C(=O)Cn1nnc(-c2cccs2)n1 (configuration not stated) | 29.1 µM [falling, single point] | 
24 | CC(OC(=O)/C(C#N)=C/c1ccc(N(C)C)cc1)C(=O)N(C)Cc1ccccc1 (configuration not stated) | 2.82 µM [rising, single point] | 
25 | O=C(Nc1ccccc1)C1=C[C@H](C2CC2)C[C@H](OCCCCO)O1 | 3.16 µM [rising, full curve] | 
26 | COc1ccc(CCN2C(=O)CN(Cc3ccccc3)CC2=O)cc1OC | 23.1 µM [rising, partial curve, poor fit] | 
27 | CCOC(=O)c1c(C)[nH]c(C)c1S(=O)(=O)N(C)CC(=O)NCc1ccc(C)cc1 | 3.55 µM [rising, full curve] | 
28 | O=C(CSc1nnc2ccccn12)NNC(=O)c1cccc(Cl)c1 | 2.91 µM [rising, partial curve] | 
29 | O=C(O)c1cccnc1SC1CC(=O)N(c2ccc(OC(F)F)cc2)C1=O (configuration not stated) | 35.5 µM [rising, single point] | 
30 | COc1cc(OC)cc(C(=O)N[C@H](C(=O)OCC(=O)Nc2cccc(F)c2)C(C)C)c1 | 0.58 µM [rising, partial curve, poor fit] | 
31 | CC(=O)c1ccc(NC(=O)COc2ccc3c(c2)OCO3)cc1 | 15.8 µM [falling, partial curve, poor fit] | 
32 | O=[N+]([O-])C1=CC=C2C(=NC3(CCCCC3)N2O)C1=NCCO | 11.2 µM [rising, partial curve] | 
33 | CCOC(=O)C/C(C)=N\Nc1nc(-c2ccccc2)cs1 | 7.08 µM [falling, partial curve] | 
34 | O=C(Cc1ccccc1)Nc1ccnn1C1CCN(Cc2ccc(CO)o2)CC1 | 1.58 µM [rising, partial curve, poor fit] | 
35 | CC(=O)Oc1ccc(-c2cccc(C(=O)O)c2)cc1 | 16.4 µM [falling, single point] | 
36 | O=C(Nc1ncccn1)c1ccc(C(F)(F)F)cc1 | 6.51 µM [falling, partial curve] | 
37 | COc1cc2c(cc1OC)C1(Nc3c-2c(Cc2ccccc2)nn3-c2ccccc2)C(=O)Nc2ccccc21 (configuration not stated) | 7.31 µM [rising, partial curve, poor fit] | 
38 | Clc1ccc(-n2cccc2/C=N/n2cnnc2)cc1 | 0.00461 µM [rising, full curve, poor fit] | 
39 | Nc1nc(SCC(=O)c2ccc(Br)s2)n[nH]1 | 2.51 µM [rising, partial curve, poor fit] | 
40 | O=C(Nc1nc(-c2ccccc2)cs1)c1ccc(N2CCOCC2)c([N+](=O)[O-])c1 | 18.4 µM [falling, single point] | 16.4 µM [rising, single point]
41 | Cc1ccc(CSCC(=O)N(C)CC(=O)Nc2ccc(Cl)c(Cl)c2)cc1 | 18.4 µM [falling, partial curve, poor fit] | 
42 | Nc1ccc(-c2c3ccccc3nc3ccccc23)cc1 | 2.51 µM [falling, partial curve, poor fit] | 

Row | SMILES | AC50 [1] | AC50 [2]
43 | Cn1cc(CCC(=O)N2CCCC(CCC(=O)NCc3ccccc3F)C2)cn1 (configuration not stated) | 35.5 µM [rising, single point] | 
44 | Cc1ccc(Oc2ncnc(N)c2[N+](=O)[O-])cc1C | 12.6 µM [falling, single point] | 
45 | COc1ccc(-n2c(SCC(=O)NCc3ccco3)nc3c([nH]c4ccccc43)c2=O)cc1 | 13 µM [rising, partial curve, poor fit] | 
46 | c1ccc(CN2CCN(c3nc(NCc4ccco4)c4ccccc4n3)CC2)cc1 | 3.26 µM [rising, partial curve, poor fit] | 18.4 µM [rising, partial curve, poor fit]
47 | CCC(=O)Nc1ccc(C(=O)Nc2cccnc2)cc1 | 6.51 µM [falling, single point] | 
48 | CCOc1ccc2nc(NC(=O)Cn3cnc4c3c(=O)n(C)c(=O)n4C)sc2c1 | 4.47 µM [falling, full curve, poor fit] | 
49 | CC(CN(C)Cc1ccccc1)OC(=O)c1cccs1 (configuration not stated) | 13 µM [rising, partial curve, poor fit] | 
50 | CCC(C)Nc1ccc(NC(C)CC)cc1 (configuration not stated) | 10.3 µM [falling, partial curve] | 
51 | CC(Sc1nc(-c2ccccc2)cs1)C(=O)Nc1ccc(Cl)cn1 (configuration not stated) | 18.4 µM [falling, partial curve, poor fit] | 
52 | COC(=O)C1=CN(C)C=C(C(=O)OC)C1c1ccccc1Cl | 23.1 µM [falling, single point] | 
53 | O=C(NCc1ccncc1)C(=O)NCC(c1ccco1)N1CCN(c2ccccc2)CC1 (configuration not stated) | 7.94 µM [rising, partial curve, poor fit] | 
54 | COc1ccc(N=NC2=C(O)CC(C)(C)CC2=O)c(OC)c1 | 20.6 µM [rising, single point] | 
55 | Cn1ncc(Br)c1C(=O)N/N=C/c1ccc(OS(=O)(=O)c2ccccc2)cc1 | 20.6 µM [falling, partial curve, poor fit] | 
56 | C/C(CC(=O)NC1CCCCCC1)=N\NC(=O)c1cnccn1 | 18.4 µM [falling, single point] | 
57 | O=C1c2ccccc2/C(=C\c2ccc3[nH]ccc3c2)N1c1ccccc1 | 20.6 µM [rising, partial curve, poor fit] | 
58 | Cc1ccc(S(=O)(=O)Nc2ccc(NC(=O)/C=C/C(=O)O)cc2)cc1 | 0.708 µM [rising, full curve, poor fit] | 
59 | Cc1ccc(NC2Nc3cc(C)nn3S2)c(C)c1 (configuration not stated) | 20 µM [rising, partial curve, poor fit] | 
60 | CC(=O)N(C(C)=O)n1c(C)nc2sc3c(c2c1=O)CCCC3 | 17.8 µM [falling, partial curve, poor fit] | 
61 | CCOC(=O)c1cc2cc(OCc3ccccc3)ccc2nc1C | 3.55 µM [rising, single point] | 
62 | CCc1ccc(N2CC(C(=O)OCC(=O)c3c(N)n(CC(C)C)c(=O)n(C)c3=O)CC2=O)cc1 (configuration not stated) | 7.31 µM [rising, partial curve] | 
63 | COc1ccccc1C(=O)Nc1cccc(N(C)S(C)(=O)=O)c1 | 6.51 µM [rising, single point] | 

3 entries out of the list, arranged by formula weight, ascending.
Row | SMILES | AC50 [1] | AC50 [2]
56 | C/C(CC(=O)NC1CCCCCC1)=N\NC(=O)c1cnccn1 | 18.4 µM [falling, single point] | 
61 | CCOC(=O)c1cc2cc(OCc3ccccc3)ccc2nc1C | 3.55 µM [rising, single point] | 
55 | Cn1ncc(Br)c1C(=O)N/N=C/c1ccc(OS(=O)(=O)c2ccccc2)cc1 | 20.6 µM [falling, partial curve, poor fit] | 
